From patent publication US20250195483A1, “SPIRO PIPERIDINE DERIVATIVES AS INHIBITORS OF APOL1 AND METHODS OF USING SAME” (Vertex Pharmaceuticals Incorporated, priority 2022, published 2025)

Protein sequences, listed by entry. Tags and fused reporters are not part of them.
UniProt O14791, whole entry: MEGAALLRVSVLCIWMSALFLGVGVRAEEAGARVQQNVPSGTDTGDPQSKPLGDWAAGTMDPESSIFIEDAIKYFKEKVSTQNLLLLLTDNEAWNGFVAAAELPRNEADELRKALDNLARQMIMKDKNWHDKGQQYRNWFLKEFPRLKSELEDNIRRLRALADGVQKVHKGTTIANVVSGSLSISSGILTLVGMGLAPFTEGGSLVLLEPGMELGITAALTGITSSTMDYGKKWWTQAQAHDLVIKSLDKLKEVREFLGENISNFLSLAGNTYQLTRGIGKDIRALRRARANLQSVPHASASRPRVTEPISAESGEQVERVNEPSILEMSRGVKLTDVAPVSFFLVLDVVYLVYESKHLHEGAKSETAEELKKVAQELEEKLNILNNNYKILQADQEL

Biological target: APOL1 (Homo sapiens, UniProt O14791)
Experiment: MultiTox-Fluor Multiplex Cytotoxicity Assay, tet-inducible APOL1 T-REx-HEK293 cells (G0, G1 or G2 clone not specified for Table 20)
Experimental: Human embryonic kidney (HEK293) cell lines containing a tet-inducible expression system (T-REx™; Invitrogen, Carlsbad, CA) and Adeno-associated virus site 1 pAAVS1-Puro-APOL1 G0 or pAAVS1-Puro-APOL1 G1 or pAAVS1-Puro-APOL1 G2 Clones G0 DC2.13, G1 DC3.25, and G2 DC4.44 were grown in a T-225 flask at ˜90% confluency in cell growth media (DMEM, 10% Tet-free FBS, 2 mM L-glutamine, 100 Units/mL penicillin-streptomycin, 5 μg/mL blasticidin S HCl, 1 μg/mL puromycin dihydrochloride). Cells were washed with DPBS and then trypsinized to dissociate from the flask. Media was used to quench the trypsin, cells were then pelleted at 200 g and resuspended in fresh cell assay media (DMEM, 2% Tet-free FBS, 2 mM L-glutamine, 100 Units/mL penicillin-streptomycin). Cells were counted and diluted to 1.17×10^6 cells/mL. 20 μL of cells (23,400/well) were dispensed in every well of a 384-well Poly-D-Lysine coated plate using the Multidrop dispenser. The plates were then incubated at room temperature for one hour.
Tetracycline is needed to induce APOL1 expression. 1 mg/mL tet stock in water was diluted to 250 ng/mL (5×) in cell assay media. 60 μL of cell assay media (no tet control) was dispensed in columns 1 and 24, and 60 μL of 5× tet in 384-PP-round bottom plate was dispensed in columns 2 to 23 with the Multidrop dispenser.
Assay ready plates from the Global Compound Archive were ordered using template 384_APOL1Cell_DR10n2_50 uM_v3. Compounds were dispensed at 200 nL in DMSO. The final top concentration was 10 μM with a 10 point 3-fold dilution in duplicate in the MultiTox assay.
20 μL was transferred from the 5× tet plate to the ARP and mixed, then 5 μL of 5× tet and the compounds were transferred to the cell plate and mixed using the Bravo. The cell plate was placed in the humidified 37° C. […]
The MultiTox-Fluor Multiplex Cytotoxicity Assay was performed in accordance with the manufacturer's protocol. […] The cell viability (excitation: 400 nm, emission: 486 nm) and cytotoxicity (excitation: 485 nm, emission: 535 nm) were read using the EnVision plate reader. […] Data was exported and analyzed in Genedata. […]

[1] = read-out: IP50 (i.e., IC50 for cell proliferation), tet-induced, 24 hours with compound, ratio of dead to live cells

| SMILES | IC50 [1] | IC50 (read-out: IP50 (i.e., IC50 for cell proliferation), tet-induced, 24 hours with compound, ratio of dead to live cells, tested form: TFA) |
| --- | --- | --- |
| Cc1cccc2c1CCOC21CCN(Cc2cnn(C)c2)CC1 | > 500 nM |  |
| CC1CC2(CCN1Cc1cnn(CCS(C)(=O)=O)c1)C(=O)Nc1ccc(Cl)cc12 (stereo not drawn) |  | < 50 nM |
| Cc1cc(F)c2c(c1)C1(CCN(Cc3cnn(CCS(C)(=O)=O)c3)CC1)C(=O)N2C [82] | > 500 nM |  |

Read-outs that look alike come from different tables or passages of the source. Structures were worked out from names or drawings and are uncertain.
